Data as given in PubChem BioAssay AID1259308 (NCATS, 2017)

Screen: 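Candidate targets for better recombinant protein yield in mammalian cells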 (primary screen)
Cell system: human HEK293 embryonic kidney cells stably expressing firefly luciferase (HEK-CMV-Luc2-Hygro)
Reagents: single siRNA against human genes, 0.8 pmol siRNA per well
Duration: 72 h
Measurement: 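Luciferase light (ONE-Glo) measured on one replicate plate set and viability (CellTiter-Glo) on the other, scaled to a negative control siRNA, with robust z-scores and luciferase per cell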
Scale: total luciferase, z-score: higher = more reporter protein produced
Hit rule: 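An siRNA counts as active if its total luciferase robust z-score exceeds 3; genes with two or more such siRNAs out of three were retested with fresh siRNAs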
Calls: active = raised luciferase; inactive = no rise
The whole screen tested about 59,000 reagents; shown is an unselected part. About 1,510 of all reagents (2.6%) were called active. 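Calls use total luciferase alone and ignore viability, so some active siRNAs may act by altering cell number.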 Unmarked entries are inactive. Reagents against one gene are numbered here. Further read-outs or replicates are left out here.

total luciferase, z-score, by gene symbol and reagent
HIKESHI: #1 -0.236; #2 -1.29; #3 1.99
ZNF577: #1 0.704; #2 2.33; #3 2.27
PIN1: #1 0.323; #2 0.581; #3 2.07
DUOX2: #1 0.394; #2 -1.43; #3 -0.384
SPACA1: #1 0.358; #2 -0.885; #3 0.702
C1DP3: #1 -1.27; #2 -1.41; #3 -0.638
OPRK1: #1 -2.59; #2 -0.263; #3 -0.811
MOB4: #1 2.01; #2 0.819; #3 0.727
TTK: #1 1.97; #2 0.128; #3 0.785
LINC00173: #1 -1.68; #2 0.878; #3 1.42
PGRMC1: #1 0.198; #2 0.673; #3 0.0327
RD3L: #1 0.374; #2 -0.777; #3 0.808
LINC00636: #1 0.074; #2 0.587; #3 -0.573
KRTAP20-1: #1 -1.21; #2 0.627; #3 -0.263

11 neighbouring records from above, quoted:
total luciferase, z-score, by gene symbol and reagent
TTK: #2 0.128; #3 0.785
LINC00173: #1 -1.68; #2 0.878; #3 1.42
PGRMC1: #1 0.198; #2 0.673; #3 0.0327
RD3L: #1 0.374; #2 -0.777; #3 0.808

Further records:
total luciferase, z-score, by gene symbol and reagent
MGAM2: #1 0.188; #2 0.336; #3 0.146
ZBTB39: #1 -0.984; #2 2.89; #3 3.85 (active)
PSMA5: #1 0.036; #2 0.348; #3 -1.58
DGCR2: #1 0.0415; #2 1.74; #3 0.543
FRG2B: #1 0.733; #2 0.526; #3 -2.57
IARS2: #1 0.364; #2 -1.15; #3 -1.03
SPRN: #1 -0.0805; #2 1.13; #3 -1.24
SPRTN: #1 -1.24; #2 0.0806; #3 3.45 (active)
LINC02610: #1 -1.31; #2 2.13; #3 0.108
FAR1: #1 -0.688; #2 0.899; #3 -1.55
GPR83: #1 0.641; #2 1.07; #3 -0.239
